# Results as given in PubChem BioAssay AID493014 (National Center for Advancing Translational Sciences (NCATS), 2011).
# The list shows a part of the results. These are further read-outs of the screen, such as a control signal, another cell line or another target. No call is given for them. Compounds called inactive in the main read-out are mostly missing here. Words in brackets tell the shape of the fitted curve; partial curves, single points and poor fits give uncertain potencies.
# Assay: qHTS Assay to Find Inhibitors of Chronic Active B-Cell Receptor Signaling
# Details: ABC-DLBCL IkBa-CBG/CBR reporter, luminescence ratio (green luciferase fused to IkBa over red control in TMD8 lymphoma cells), 4 h
# How it was run: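 Concentration-response series (up to 46 uM) were applied to TMD8 dual-reporter cells for 4 h at 37C with doxycycline. Green/red ratio, after filter-overlap correction, defined %Activity; red signal alone was normalised to basal cells and zero luminescence.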
# [1] = measured here: CBR red luminescence, cell number
# [2] = measured here: IkBa-CBG green luminescence
SMILES,AC50 [1],AC50 [2]
COc1ccc(NS(=O)(=O)c2ccc(N)cc2)nn1,"29.1 µM [rising, partial curve, poor fit]",
CC(C)n1cnc2c(NCc3ccccc3)cc(N[C@H](C)CO)cc21,"20.6 µM [falling, partial curve]",
COc1ccccc1OCC(=O)Nc1ccc(Cl)cc1,"18.4 µM [falling, partial curve]",
O=C(O)c1cc2c(ccc3ccccc32)[nH]1,"1.46 µM [rising, partial curve, poor fit]",
Cc1ccc(CNC(=O)CCCCCNC(=O)N2CCn3c2nc2ccccc23)cc1,"11.2 µM [falling, partial curve, poor fit]",
COc1nn(CC(=O)N2N=C(C)CC2(O)C(F)(F)F)cc1[N+](=O)[O-] (centres undefined),"13 µM [rising, partial curve, poor fit]",
O=C(Nc1ccc2c(c1)OCCO2)c1ccc(Cl)c(S(=O)(=O)N2CCOCC2)c1,"35.5 µM [falling, single point]",
COC(=O)C1C(=O)c2c(C)noc2CC1(C)C (centres undefined),"14.1 µM [rising, single point]",
Cc1c2n(c3ccccc13)CC/C2=N\O,"10 µM [rising, partial curve, poor fit]",
O=C(COc1ccccc1[N+](=O)[O-])N1CCN(C(=O)c2ccco2)CC1,"22.4 µM [falling, single point]",
CC(C)(C)c1cnnn1-c1ccc(C(=O)CCl)cc1,"29.1 µM [falling, single point]",
O=C(CSc1nnc(Cn2c(=O)sc3ccccc32)n1-c1ccccc1)Nc1nccs1,"11.6 µM [falling, partial curve]","23.1 µM [rising, partial curve, poor fit]"
O=C(O)c1cccc(NC(=O)c2cccc(NC(=O)C3CCCO3)c2)c1 (centres undefined),"8.91 µM [falling, partial curve]",
Cc1cc(C)c2c(CN3CCN(Cc4ccccc4)CC3)cc(=O)oc2c1C,"3.16 µM [rising, single point]",
CCOC(=O)c1sc(N=NC2=C(O)CC(C)(C)CC2=O)c(C(=O)OCC)c1C,"3.16 µM [falling, single point]","3.98 µM [rising, partial curve, poor fit]"
COc1ccc2c3n([n+]([O-])c2c1)CCN=C3c1cc(Cl)c(N)c(Cl)c1,"23.1 µM [falling, partial curve]",
Cc1ccc(OCC(=O)O/N=C(\N)c2ccccn2)cc1,"11.2 µM [falling, partial curve]",

# Rewritten bar-delimited: part of the list above
SMILES | AC50 [1] | AC50 [2]
COc1ccc(NS(=O)(=O)c2ccc(N)cc2)nn1 | 29.1 µM [rising, partial curve, poor fit] | 
CC(C)n1cnc2c(NCc3ccccc3)cc(N[C@H](C)CO)cc21 | 20.6 µM [falling, partial curve] | 
